Source: patent US12152030B2 (NOVOSTAR PHARMACEUTICALS, LTD., priority 2019, dated 2024)
Counter-ions that a name gives are not always drawn. For at least one compound, name, drawing or mass did not settle the structure.

Key:
[1] = tested on: 468 kinases (403 of which were wild-type kinases); experiment: KinomeScan kinase selectivity panel; type: binding
[2] = tested on: PD-1; experiment: Expression of immune checkpoint PD-1 on cell surface of PHA-activated PBMC (flow cytometry); type: cell-based, human; conditions: 5 μg/ml PHA, 0.01-10 μM, 48 hours
Experimental: (§1) Gradient centrifugation was used to extract PBMC cells from peripheral blood of healthy people. The PBMC cells were activated with 5 μg/ml PHA (Sigma), and treated with different concentrations of compounds (0, 0.01, 0.1, 1, 3, 10 μM). After 48 hours, the cells and culture supernatants were collected, respectively. Flow cytometry was used to detect the expression of immune checkpoints, PD-1, Tim-3 and Lag-3 on cell surface, and to detect the secretion level of various cytokines (IL-6, IL-10 and TNF-α) in the cell culture supernatants.

[3] = tested on: Tim-3; experiment: Expression of immune checkpoint Tim-3 on cell surface of PHA-activated PBMC (flow cytometry); type: cell-based, human; conditions: 5 μg/ml PHA, 0.01-10 μM, 48 hours
Experimental: as §1

[4] = tested on: Lag-3; experiment: Expression of immune checkpoint Lag-3 on cell surface of PHA-activated PBMC (flow cytometry); type: cell-based, human; conditions: 5 μg/ml PHA, 0.01-10 μM, 48 hours
Experimental: as §1

[5] = tested on: IL-10; experiment: Secretion level of IL-10 in PHA-activated PBMC culture supernatants; type: cell-based, human; conditions: 5 μg/ml PHA, 0.01-10 μM, 48 hours
Experimental: as §1

[6] = tested on: IL-6; experiment: Secretion level of IL-6 in PHA-activated PBMC culture supernatants; type: cell-based, human; conditions: 5 μg/ml PHA, 0.01-10 μM, 48 hours
Experimental: as §1

[7] = tested on: TNF-α; experiment: Secretion level of TNF-α in PHA-activated PBMC culture supernatants; type: cell-based, human; conditions: 5 μg/ml PHA, 0.01-10 μM, 48 hours
Experimental: as §1

Question: With `Cc1c2c(c(=O)n3c1C(=O)NC31CCCCC1)Nc1cc(N)ncc1C2` [Compound 2, 8′-amino-12′-methyl-6′,11′-dihydro-2′H-spiro[cyclohexane-1,3′-imidazole[1′,5′:1,6]pyrido[3,4-B][1,6]naphthyridine]-1′,5′-dione hydrochloride] as the molecule, how does the “% Inhibition @ 1 μM, other 399 wild-type protein kinases” value [1] read?
Answer: <50%

Question: What about the “interaction with kinases other than MNK1/2, except GAK and DRAK1” value ([1]; 1 μM, 468 kinases) of the same molecule?
Answer: not observed

Question: What about the “Number of hits, S(1)” value ([1]; 403 wild-type kinases, 1 μM) of the same molecule?
Answer: 1

Question: What about the “Number of hits, S(10)” value ([1]; 403 wild-type kinases, 1 μM) of the same molecule?
Answer: 3

Question: And the “Number of hits, S(35)” value ([1]; 403 wild-type kinases, 1 μM)?
Answer: 4

Question: What about the “Selectivity score S(1)” value ([1]; 403 wild-type kinases, 1 μM) of the same molecule?
Answer: 0.002

Question: What about the “Selectivity score S(10)” value ([1]; 403 wild-type kinases, 1 μM) of the same molecule?
Answer: 0.007

Question: And the “Selectivity score S(35)” value ([1]; 403 wild-type kinases, 1 μM)?
Answer: 0.01

Question: What about the “inhibition of PD-1 expression” value [2] of the same molecule?
Answer: significantly inhibited

Question: And the “inhibition of Tim-3 expression” value [3]?
Answer: significantly inhibited

Question: What about the “inhibition of Lag-3 expression” value [4] of the same molecule?
Answer: significantly inhibited

Question: And the “inhibition of secretion of IL-10” value [5]?
Answer: significantly inhibited

Question: And the “inhibition of secretion of IL-6” value [6]?
Answer: significantly inhibited

Question: What about the “inhibition of secretion of TNF-α” value [7] of the same molecule?
Answer: significantly inhibited
